Assay results from PMC11724365, “Novel archaeal ribosome dimerization factor facilitating unique 30S–30S dimerization” (Nucleic Acids Research, 2025).

Target: eS32 ribosomal protein (Pyrococcus furiosus (endogenous in P. furiosus cells))
Test: cryo-EM structure; 1 uM P. furiosus 30S subunits with 5 uM aRDF (1:5) in 20 mM HEPES-KOH pH 7.0, 12 mM MgCl2, 100 mM NH4Cl, 0.5 mM EDTA; 15 min at 70 °C before freezing; Structures I and II at 3.2 Å; both purified

binding: binds
B1: archaeal ribosome dimerization factor (aRDF) (natural protein, Pyrococcus furiosus)
chain: MKVVGIKGSVSYLQALKYLKTKKVTKRLKEIEKLVDTLITLAPYAPEGSKIETIRKNYAKISFNKIKTVSRSKIGSPRIKSIMLLLWNFGLLDVKIIENSWYVRKTKLASLLEENFKDLSPSEKLKVYLLGGLLVDTPARFVYRCTLNGVEDYKGVKKAILGYLSDQRSNSLIIGLSNMLESIKFIEEAQAYSGKKEYIGLVDVAFYGLSGLYLDVKRESGKLTVKPNFRELRALYEIDKSVATGSDYGLSISKEILENLANTKRRKTIFSEEVQELLVNVIKENAISISQDLQNMYGII
notes: aRDF (PF0560 protein) of Pyrococcus furiosus; modelled in PDB 9FNY and 9FNZ with poorly defined loops omitted; Forms homodimers (monomers A and B); two homodimers bridge two 30S subunits in the cryo-EM structures; also called PF0560; PF0560 protein; source: E. coli BL21(DE3), purified (heat treatment, Ni-NTA, heparin)

No constants are given. Whether binding was seen depends on the method and setting. Binding can be weak; no strength is given.
